Some of the results follow. Many values rest on one well or one pass, so single values are uncertain.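 Cells were imaged in 1,536-well plates, and nuclei stained with an antibody against cleaved PARP were counted against all DNA-stained nuclei to give the apoptosis fraction. Screening doses were chosen to leave most cells alive, and resting and induced cleaved-PARP levels differ strongly between cell lines.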
What follows are compounds tested on A101D (assay: cleaved PARP positive nuclei fraction relative to DMSO control; melanoma cells; higher = more apoptosis). Settings: library dose: low library concentration; 72 h.

Compound	cleaved PARP positive nuclei fraction [%]
CCCS(=O)(=O)Nc1ccc(F)c(C(=O)c2c[nH]c3ncc(Cl)cc23)c1F + Oc1nc(-c2ccc(C(F)(F)F)cc2)nc2c1CSCC2 [XAV939] (first compound 0.08 µM, partner dose 2 µM)	14.5
Nc1nc(F)nc2c1ncn2[C@@H]1O[C@H](CO)[C@@H](O)[C@@H]1O [fludarabine] + COc1ccc(-c2ccc3c(N4CCOCC4)nc(N4C[C@@H](C)O[C@@H](C)C4)nc3n2)cc1CO [KU0063794] (first compound 0.2 µM, partner dose 0.02 µM)	667
CS(=O)(=O)CCNCc1ccc(-c2ccc3ncnc(Nc4ccc(OCc5cccc(F)c5)c(Cl)c4)c3c2)o1 [lapatinib] + O=C(Nc1ccccc1)c1cc([N+](=O)[O-])ccc1Cl [GW9662] (first compound 0.8 µM, partner dose 2 µM)	15
C=C(c1ccc(C(=O)O)cc1)c1cc2c(cc1C)C(C)(C)CCC2(C)C [Bexarotene] + CCc1ccc(CCOc2ccc(CC3SC(=O)NC3=O)cc2)nc1 [pioglitazone] (first compound 2 µM, partner dose 2 µM)	10.4
C=C(c1ccc(C(=O)O)cc1)c1cc2c(cc1C)C(C)(C)CCC2(C)C [Bexarotene] + c1cc(-c2cnn3cc(-c4ccc(OCCN5CCCCC5)cc4)cnc23)ccn1 [Dorsomorphin] (first compound 2 µM, partner dose 0.4 µM)	43.3
CS(=O)(=O)CCNCc1ccc(-c2ccc3ncnc(Nc4ccc(OCc5cccc(F)c5)c(Cl)c4)c3c2)o1 [lapatinib] + COc1cc(N2CCC(N3CCN(C)CC3)CC2)ccc1Nc1ncc(Cl)c(Nc2ccccc2S(=O)(=O)C(C)C)n1 [NVP-TAE684] (first compound 0.8 µM, partner dose 0.08 µM)	38.2
CNC(=O)c1cc(Oc2ccc(NC(=O)Nc3ccc(Cl)c(C(F)(F)F)c3)cc2)ccn1 [sorafenib] + CCN(CC)CCCCNc1ncc2cc(-c3cc(OC)cc(OC)c3)c(NC(=O)NC(C)(C)C)nc2n1 [PD173074] (first compound 0.4 µM, partner dose 0.1 µM)	52.2
CO[C@H]1C[C@@H]2CC[C@@H](C)[C@@](O)(O2)C(=O)C(=O)N2CCCC[C@H]2C(=O)O[C@H]([C@H](C)C[C@@H]2CC[C@@H](OCCO)[C@H](OC)C2)CC(=O)[C@H](C)/C=C(\C)[C@@H](O)[C@@H](OC)C(=O)[C@H](C)C[C@H](C)/C=C/C=C/C=C/1C [everolimus] + O=C1NC(=O)/C(=C/c2ccc(-c3ccc(F)cc3O)o2)S1 [AS252424] (first compound 0.02 µM, partner dose 1 µM)	87
